The text below walks through data of publication PMC12540671.

The chains behind the UniProt entries cited, without tags or fusion partners. Where a name states a change or a piece, a line headed by the entry shows the natural chain unless it says otherwise.
UniProt Q62388: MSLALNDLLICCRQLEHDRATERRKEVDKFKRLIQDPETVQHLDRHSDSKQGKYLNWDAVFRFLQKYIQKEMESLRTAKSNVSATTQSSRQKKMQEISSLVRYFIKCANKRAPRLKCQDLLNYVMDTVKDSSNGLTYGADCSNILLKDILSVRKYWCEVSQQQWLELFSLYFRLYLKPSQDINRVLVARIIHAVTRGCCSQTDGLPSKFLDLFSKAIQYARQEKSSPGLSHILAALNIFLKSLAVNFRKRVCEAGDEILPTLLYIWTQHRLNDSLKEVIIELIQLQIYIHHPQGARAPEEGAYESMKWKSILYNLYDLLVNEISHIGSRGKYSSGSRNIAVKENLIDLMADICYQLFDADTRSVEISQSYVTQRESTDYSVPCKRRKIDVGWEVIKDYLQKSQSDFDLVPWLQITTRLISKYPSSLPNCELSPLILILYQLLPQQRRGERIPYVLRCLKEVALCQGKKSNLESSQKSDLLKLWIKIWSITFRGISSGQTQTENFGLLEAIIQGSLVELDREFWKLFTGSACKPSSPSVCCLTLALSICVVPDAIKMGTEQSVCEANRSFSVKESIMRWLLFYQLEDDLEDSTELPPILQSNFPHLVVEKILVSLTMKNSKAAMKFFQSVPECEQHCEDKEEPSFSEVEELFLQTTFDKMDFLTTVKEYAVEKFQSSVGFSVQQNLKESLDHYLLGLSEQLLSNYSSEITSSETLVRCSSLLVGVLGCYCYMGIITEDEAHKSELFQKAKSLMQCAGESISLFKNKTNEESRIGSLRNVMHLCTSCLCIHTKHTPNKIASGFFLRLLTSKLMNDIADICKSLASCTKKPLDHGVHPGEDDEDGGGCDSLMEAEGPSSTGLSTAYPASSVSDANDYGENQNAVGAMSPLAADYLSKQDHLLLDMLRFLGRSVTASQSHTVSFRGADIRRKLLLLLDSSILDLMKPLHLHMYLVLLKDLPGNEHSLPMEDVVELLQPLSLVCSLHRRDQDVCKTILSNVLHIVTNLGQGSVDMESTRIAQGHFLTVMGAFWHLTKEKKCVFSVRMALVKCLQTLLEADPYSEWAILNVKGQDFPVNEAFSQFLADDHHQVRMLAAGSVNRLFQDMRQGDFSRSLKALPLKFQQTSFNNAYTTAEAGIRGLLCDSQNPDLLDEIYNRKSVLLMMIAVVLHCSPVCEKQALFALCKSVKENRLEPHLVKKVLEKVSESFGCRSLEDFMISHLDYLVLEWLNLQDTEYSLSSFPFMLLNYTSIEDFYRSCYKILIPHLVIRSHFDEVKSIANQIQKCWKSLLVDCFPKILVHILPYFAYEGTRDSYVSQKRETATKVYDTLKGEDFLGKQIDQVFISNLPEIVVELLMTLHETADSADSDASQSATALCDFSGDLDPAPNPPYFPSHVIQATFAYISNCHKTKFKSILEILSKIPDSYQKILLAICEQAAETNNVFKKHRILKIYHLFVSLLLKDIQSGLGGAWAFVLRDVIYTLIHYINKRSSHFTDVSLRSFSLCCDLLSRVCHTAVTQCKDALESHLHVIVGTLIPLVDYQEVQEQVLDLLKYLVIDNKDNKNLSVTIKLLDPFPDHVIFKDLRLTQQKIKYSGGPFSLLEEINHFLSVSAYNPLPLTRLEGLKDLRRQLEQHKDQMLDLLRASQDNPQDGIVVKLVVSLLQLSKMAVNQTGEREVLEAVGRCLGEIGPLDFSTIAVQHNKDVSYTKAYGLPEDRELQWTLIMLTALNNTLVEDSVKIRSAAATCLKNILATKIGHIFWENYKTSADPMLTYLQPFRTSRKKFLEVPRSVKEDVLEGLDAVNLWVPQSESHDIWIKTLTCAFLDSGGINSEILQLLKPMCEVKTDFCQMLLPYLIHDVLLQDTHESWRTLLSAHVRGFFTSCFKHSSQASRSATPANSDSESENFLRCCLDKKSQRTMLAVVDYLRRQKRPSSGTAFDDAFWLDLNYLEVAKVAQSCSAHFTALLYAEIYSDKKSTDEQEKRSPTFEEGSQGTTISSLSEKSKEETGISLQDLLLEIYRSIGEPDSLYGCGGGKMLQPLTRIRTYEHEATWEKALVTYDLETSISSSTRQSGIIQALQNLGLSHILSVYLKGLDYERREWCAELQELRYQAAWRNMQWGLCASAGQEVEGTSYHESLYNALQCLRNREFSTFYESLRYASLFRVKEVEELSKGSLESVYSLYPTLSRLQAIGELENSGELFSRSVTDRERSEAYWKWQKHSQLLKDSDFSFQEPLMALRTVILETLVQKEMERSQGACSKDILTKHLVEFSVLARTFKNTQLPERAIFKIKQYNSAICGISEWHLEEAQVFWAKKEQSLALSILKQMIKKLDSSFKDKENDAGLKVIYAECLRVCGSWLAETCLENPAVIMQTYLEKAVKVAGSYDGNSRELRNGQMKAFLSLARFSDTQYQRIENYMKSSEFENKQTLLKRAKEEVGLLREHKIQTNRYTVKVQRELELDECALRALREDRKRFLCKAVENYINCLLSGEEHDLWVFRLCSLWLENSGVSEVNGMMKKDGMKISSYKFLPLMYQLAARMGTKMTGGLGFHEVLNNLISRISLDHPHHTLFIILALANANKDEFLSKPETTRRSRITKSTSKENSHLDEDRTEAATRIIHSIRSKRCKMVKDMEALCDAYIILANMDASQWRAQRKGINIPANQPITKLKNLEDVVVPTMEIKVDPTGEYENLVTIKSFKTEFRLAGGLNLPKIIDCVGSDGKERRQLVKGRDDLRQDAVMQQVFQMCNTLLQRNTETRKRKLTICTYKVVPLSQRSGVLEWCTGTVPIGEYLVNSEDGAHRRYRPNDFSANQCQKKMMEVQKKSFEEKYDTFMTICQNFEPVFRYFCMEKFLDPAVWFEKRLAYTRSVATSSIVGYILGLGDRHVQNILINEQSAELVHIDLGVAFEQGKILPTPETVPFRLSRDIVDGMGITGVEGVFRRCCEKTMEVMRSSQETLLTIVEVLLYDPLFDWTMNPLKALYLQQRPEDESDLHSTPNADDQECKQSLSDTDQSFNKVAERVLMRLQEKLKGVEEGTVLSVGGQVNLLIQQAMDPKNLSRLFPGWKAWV
UniProt Q61221: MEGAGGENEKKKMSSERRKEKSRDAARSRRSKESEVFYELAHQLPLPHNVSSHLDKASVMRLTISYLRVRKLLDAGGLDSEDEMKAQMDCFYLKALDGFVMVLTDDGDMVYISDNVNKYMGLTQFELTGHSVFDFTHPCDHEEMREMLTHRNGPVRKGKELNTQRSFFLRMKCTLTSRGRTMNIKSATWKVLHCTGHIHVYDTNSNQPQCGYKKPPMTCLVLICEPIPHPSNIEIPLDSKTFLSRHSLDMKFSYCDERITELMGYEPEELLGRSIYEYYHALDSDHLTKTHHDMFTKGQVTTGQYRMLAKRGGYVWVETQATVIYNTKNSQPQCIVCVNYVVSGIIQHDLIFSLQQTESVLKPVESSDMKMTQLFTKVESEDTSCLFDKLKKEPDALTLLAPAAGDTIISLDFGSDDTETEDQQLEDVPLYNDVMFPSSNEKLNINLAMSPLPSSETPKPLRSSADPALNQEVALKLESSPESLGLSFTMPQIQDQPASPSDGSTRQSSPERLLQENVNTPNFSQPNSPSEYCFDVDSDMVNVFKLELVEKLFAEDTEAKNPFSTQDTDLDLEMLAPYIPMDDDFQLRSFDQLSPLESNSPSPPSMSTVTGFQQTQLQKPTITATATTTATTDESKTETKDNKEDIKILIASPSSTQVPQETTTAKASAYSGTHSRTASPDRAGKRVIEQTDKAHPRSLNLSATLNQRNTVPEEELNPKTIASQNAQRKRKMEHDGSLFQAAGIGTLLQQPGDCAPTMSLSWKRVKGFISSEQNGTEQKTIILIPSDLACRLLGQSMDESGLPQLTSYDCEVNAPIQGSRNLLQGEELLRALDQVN
UniProt O35343: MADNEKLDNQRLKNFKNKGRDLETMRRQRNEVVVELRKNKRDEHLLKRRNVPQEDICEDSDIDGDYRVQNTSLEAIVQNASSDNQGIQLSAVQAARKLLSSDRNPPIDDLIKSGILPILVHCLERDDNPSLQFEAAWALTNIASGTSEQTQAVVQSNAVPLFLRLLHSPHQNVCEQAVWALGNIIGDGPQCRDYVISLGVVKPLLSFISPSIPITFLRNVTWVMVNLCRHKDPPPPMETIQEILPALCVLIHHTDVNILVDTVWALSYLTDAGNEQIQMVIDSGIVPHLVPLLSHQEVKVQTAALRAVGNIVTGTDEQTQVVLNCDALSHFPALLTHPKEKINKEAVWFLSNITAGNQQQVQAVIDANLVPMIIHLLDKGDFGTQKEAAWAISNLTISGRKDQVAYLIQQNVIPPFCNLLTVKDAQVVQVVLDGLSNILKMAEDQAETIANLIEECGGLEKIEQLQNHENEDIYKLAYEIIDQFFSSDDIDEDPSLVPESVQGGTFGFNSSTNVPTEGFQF
UniProt P52480: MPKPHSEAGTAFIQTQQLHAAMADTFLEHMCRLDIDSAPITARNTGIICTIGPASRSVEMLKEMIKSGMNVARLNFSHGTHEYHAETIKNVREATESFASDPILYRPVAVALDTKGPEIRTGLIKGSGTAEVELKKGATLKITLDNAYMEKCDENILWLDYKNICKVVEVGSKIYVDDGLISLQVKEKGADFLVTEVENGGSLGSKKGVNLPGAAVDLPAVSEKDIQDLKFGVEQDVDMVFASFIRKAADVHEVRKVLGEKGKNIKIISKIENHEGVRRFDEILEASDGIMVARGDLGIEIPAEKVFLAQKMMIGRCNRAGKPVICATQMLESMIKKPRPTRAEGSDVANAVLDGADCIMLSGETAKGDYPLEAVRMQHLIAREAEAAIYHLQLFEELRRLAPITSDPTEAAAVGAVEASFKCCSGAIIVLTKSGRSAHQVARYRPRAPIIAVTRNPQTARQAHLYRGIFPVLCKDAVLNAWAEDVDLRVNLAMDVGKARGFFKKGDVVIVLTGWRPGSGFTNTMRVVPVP

In test [1] the target is ATM (ataxia-telangiectasia mutated) kinase (mouse (endogenous in cerebellar tissue)) (UniProt Q62388). The test can be described thus: condition: only with ethyl pyruvate, a scavenger of hydrogen peroxide; non-reducing SDS-PAGE and immunoblot; as a1, glargine together with ethyl pyruvate (scavenger of H2O2). (Immunoblotting shows a protein as a band on a membrane.)
The target of test [2] is HIF1α (mouse (endogenous in cerebellar tissue)) (UniProt Q61221). As to the kind of experiment: condition: only co-treatment with TEPP-46 (50 mg/kg body weight, daily, 4 weeks); co-IP; as a6, Atm-WT mice given glargine together with TEPP-46 (50 mg/kg, daily, 4 weeks).
The target in test [3] is importin-α3 (mouse (endogenous in cerebellar tissue)) (UniProt O35343). The test can be described thus: co-IP; ex vivo mouse cerebellar culture, Atm-WT, with or without 100 nM glargine for 2 h; 1 mg lysate (RIPA), precleared with control IgG, Dynabeads Protein G, overnight at 4 °C, immunoblot.
Test [4] concerns the target HIF1α (mouse (endogenous in cerebellar tissue)) (UniProt Q61221). As to the kind of experiment: co-IP; cerebellar tissue of Atm-WT mice after daily glargine (50 Unit/kg) for 4 weeks; whole cell and subcellular fractionated lysates, immunoblot.

Results are given in words; binding and its absence hold for the method and conditions named. For some of these results: Binding seen in cells or lysates may run through a third protein. Some binding calls cover weakened binding; strength is not graded here.

In the case of “ATM (ataxia-telangiectasia mutated) kinase (from UniProt Q62388 1-3066) (enzyme)”, in test [1], the binding result was “no binding”.

Take “PKM2 (pyruvate kinase M2) (from UniProt P52480 1-531) (enzyme)”: the binding entry in test [2] was “no binding”; in test [3] it was “binds”; in test [4], “binds”.
